Results taken from patent publication US20100206809A1, “METHOD AND APPARATUS FOR TREATING ORGANIC MATTER-CONTAINING WATER” (KURITA WATER INDUSTRIES LTD., priority 2007, published 2010).

How the values were obtained:
[1] = Daily change in differential pressure across the RO membrane separator
[2] = Concentration of combined chlorine in activated carbon-treated water; assay type: physicochemical; settings: industrial water

SMILES | Slime on the clogged RO membrane separator ([1]; Comparative Example 1, free chlorine 0.5 mg-Cl2/L) | Differential pressure across the RO membrane separator ([1]; Comparative Example 1, free chlorine 0.5 mg-Cl2/L, about 7 months after the start of passing water, FIG. 3) | Increase in differential pressure across the RO membrane separator ([1]; Example 1, combined chlorine 5 mg-Cl2/L, FIG. 3) | Concentration of combined chlorine in activated carbon-treated water ([2]; Example 4, combined chlorine in activated carbon feed water 1 mg/L, SV 20 hr^-1) [mg/L] | Concentration of combined chlorine in activated carbon-treated water ([2]; Example 5, combined chlorine in activated carbon feed water 3 mg/L, SV 20 hr^-1) [mg/L] | Concentration of combined chlorine in activated carbon-treated water ([2]; Example 8, SV through activated carbon column 20 hr^-1, combined chlorine 1 mg-Cl2/L) [mg/L] | Concentration of combined chlorine in activated carbon-treated water ([2]; Example 9, SV through activated carbon column 30 hr^-1, combined chlorine 1 mg-Cl2/L) [mg/L]
OCl [NaClO, sodium hypochlorite, reference compound] | adhesion of slime to the clogged RO membrane separator was observed | about 0.4 MPa | – | – | – | – | –
Cc1ccc(S(=O)(=O)[N-]Cl)cc1.[Na+] [Chloramine T, sodium N-chloro-p-toluenesulfonamide trihydrate] | – | – | no increase in differential pressure | 0.5 | 2 | 0.5 | 0.9
